Results reported in patent publication US20230127875 (published 2023).

Test: general procedure: recombinant production

| Substance | crude HPLC purity (late stage modification step) [%] | crude HPLC purity (lipidation step) [%] |
| --- | --- | --- |
| Insulin (tBuO-Pal-Glu-(Lys^29NH)-OtBu, DesB30) | 74.37 | – |
| DiFmoc-Insulin (tBuO-Pal-Glu-(Lys^29NH)-OtBu, DesB30) | – | 66.64 |
